{
  "source": "patent US8038983B2",
  "about": "“Fluorinated carbohydrate conjugates” (Immunomedics, Inc., priority 2003, dated 2011)",
  "experiment": "Binding of sugars to boronic acid immobilized resin, concentration left in solution measured with a commercial glucose sensor",
  "conditions": "10 mL solution mixed with 1 mL boronic acid resin, room temperature, 50 min, decanted",
  "experimental": "After the FDG has been synthesized, it can be purified by passing the FDG through a boronic acid resin column. […] Boronic acid derivatives are known to bind glucose and other carbohydrates at pH 8.5 and release them at pH 4. As shown by the results in Table 1, boronic acid resins can be used to selectively purify FDG from a FDG/glucose mixture, based on preferential binding of FDG.\nGlucose (0.0141 g) was dissolved in a solution containing 25 mL of saline and 3 mL of 1 M NaHCO3. The solution (10 mL) was mixed with 1 mL of the Boronic acid immobilized resin (Pierce 20244) and incubated with mixing in a 15 mL centrifuge tube at room temperature for 50 min. The solution was decanted and the glucose concentration was measured with a commercial glucose sensor.\nThe cold 2-fluoro-2-deoxy-D-glucose, 0.0161 g was dissolved in a solution containing 28 mL of saline and 3.4 mL of 1 M NaHCO3. The FDG solution was treated in the same manner as the glucose solution.",
  "data": [
    {"molecule": "O=C[C@H](F)[C@@H](O)[C@H](O)[C@H](O)CO", "note": "[FDG, 2-Fluoro-2-Deoxy-D-Glucose]", "values": [
      {"measurement": "After Resin (concentration in solution)", "value": 0.06, "unit": "g/L"}
    ]}
  ]
}
